According to PMC7772139:
No constants are given. Whether binding was seen depends on the method and setting. For part of these data: In cells and extracts the contact can be indirect. For part of these data: Binding calls can cover weak binding; strength is not graded here. For part of these data: Where a sequence is shown, tags or fusion partners need not be part of it.

What follows are binders tested against SL1 lacking the N-terminal transit peptide (GST-SL1; His fusion of SL1) (Arabidopsis thaliana) (assay: pull-down; GST-SL1 coupled to glutathione resin, incubated with His fusion proteins; PBS pH 7.4; washed with PBS pH 7.4, 0.5% Triton X-100, 0.5 mM PMSF; bound proteins detected by Western blot with anti-His).

binding	Binder
binds	PAP12/PTAC7 lacking the N-terminal transit peptide, His fusion (protein, UniProt Q8VZV9 33-161) CGIQRDDNGRRVWRRRTLTKKDDMLRYKMQRVPFVEEQVRKIREVGKVMTMDIEQLLLREDNRFEFVNSVAAEATEYVDKNRDEYGGSKKAIFHVLSNRVNDLGFDRPEAYVEADPYKPGPGYLLEYYT

What follows are binders tested against Seedling Lethal 1 (SL1/mTERF3) (Arabidopsis thaliana) (assay: two-hybrid; SL1 as bait (GAL4 DNA binding domain, pGBKT7), PEP complex proteins and chloroplast mTERF proteins as prey (GAL4 activation domain, pGADT7); yeast strain Y2H Gold; growth on SD/-Trp-Leu, SD/-Trp-Leu-His and SD/-Trp-Leu-His-Ade).

Binder	binding
mTERF8/PTAC15 (protein, UniProt Q9FK23 1-500) MVILSLVSCSFSVFSPPISLRLHLPPVTSLCSHGTFPASSTFRSQLQPLLISCLNHREPALTFRCSCLSSPIESGSQIESLFSLFRDIGFIEEETEMILAKNPDIKSTSLDKIGARVASLQSLKINGFPLQGLIAKCPNLLTSEEFDLVISFLVDELEGRLDPELVERLLSVVDTSILLSFNQKVRLLLLHGIPKEKISHVLNKVYLNKLLYQKSVEDIERLISFLEPFGGIGIIARRPVILNSDLDSQLIPRVDFIRNLSGEDDFATGTVLRRLPAILSYSVEHMNGQVEFLKSFAGLTSEQVFKIVHVFPNVISTSKERKLRPRIEFLKECGFDSPGMFKFLSKAPLILALSENNLSHKLGFLVKIGYKHRTKELAFAMGAVTRTSSDNMQRVIGLYLSYGLSFEDILAMSTKHPQVLQYNYTSLEEKLEYLIEYMGREVEELLAFPAFLGYKLDSRIKHRYEEKLKSRGENMSLNKLLTVSAERFSKAADNIEMICL	no binding
FLN2 (protein, UniProt F4I0K2 1-614) MASLSFTQFLSFPRCNADVPCLLQSHGFVKFRGERWNGKQSFSMAAGRRKLSESAPLEEEGNDGNGAVVGKKPSKSVKRTTKKKVVVKDEPLEEISEFLVDNDDVLDKESIVSALKPKKTRTRKKAAAASSDVEEVKTEKKVRRKRTVKKDKDVEDDLATIMDAEVSDVEEALAVESTDTESEEEEIDLSKHEGEDISHTYGWPPLVCCFGSAQHAFVPSGRPANRLLDYELHERMRDAKWAPEKYIRAPGGCAGGVAIALASLGGKVAFMGKLGADDYGQAMLYYLNVCKVQTRSVKIDGKRVTACSTMKISKRGRLKSTCIKPCAEDSLSKSEINVDVLKEAKMFYFSTHSLLDKKMMSTTIQAIKISKQLGNVIFYDLNLPLPLWHSSEETKSFIQEVWNLADVIEITKQELEFLCGIEPTEEFDTENNDISKFVHYPPETVEQLWHENLKVLFVTNGTSKIHYYTKEHNGAVSGMEDVPITPFTRDMSASGDGIVAGLIRMLTVQPDLMNNKGYLERTARYAIECGIIDQWLLAQTRGYPPKDDMEEEEDDEEEDEVESDPNGIRSITEKEYRTSKPYDEPDGPYVMKPVEEREYKKLELVGSMFEDGSL	no binding
mTERF9 (protein, UniProt Q9FM80 1-496) MAGFSLYCFKNPRILFTLPSESPLFVLGSDKCSPATRRPSRKTRGFVVTYAHSNPKIINPKKKSRYGQTLSPYDSDEDDDDDDDDDDDDWLLNDDFAEVTEYEKKKPKSHKQTIAKKSVKKGIVKPEESETDEDDLDLGISPNATSEKKKESWRLDGRGKMSSRKYVEKLYPRLAEEIDIDPKCVPLLDYLSTFGLKESHFVQMYERHMPSLQINVFSAQERLDYLLSVGVKHRDIKRMLLRQPQILQYTVENNLKAHISFLMGLGIPNSKIGQIVAATPSLFSYSVENSLRPTIRYLIEEVGIKETDVGKVVQLSPQILVQRLDITWNTRYMFLSKELGAPRDSVVKMVKKHPQLLHYSIDDGFLPRINFLRSIGMCNSDILKVLTSLTQVLSLSLEDNLKPKYMYLVNELNNEVHILTKYPMYLSLSLDQRIRPRHRFLVELKKVRKGPFPLSSLVPNDESFCQQWAGTSVDTYLAFRQRLLLKEFANKYDKRG	no binding
PAP3/PTAC10 (protein, UniProt F4JF21 1-668) MQICQTKLNFTFPNPTNPNFCKPKALQWSPPRRISLLPCRGFSSDEFPVDETFLEKFGPKDKDTEDEARRRNWIERGWAPWEEILTPEADFARKSLNEGEEVPLQSPEAIEAFKMLRPSYRKKKIKEMGITEDEWYAKQFEIRGDKPPPLETSWAGPMVLRQIPPRDWPPRGWEVDRKELEFIREAHKLMAERVWLEDLDKDLRVGEDATVDKMCLERFKVFLKQYKEWVEDNKDRLEEESYKLDQDFYPGRRKRGKDYEDGMYELPFYYPGMVCEGTVTTLHLYQGAFVDIGGVHEGWVPIKGNDWFWIRHFIKVGMHVIVEITAKRDPYRFRFPLELRFVHPNIDHMIFNKFDFPPIFHRDGDTNPDEIRRDCGRPPEPRKDPGSKPEEEGLLSDHPYVDKLWQIHVAEQMILGDYEANPAKYEGKKLSELSDDEDFDEQKDIEYGEAYYKKTKLPKVILKTSVKELDLEAALTERQHHNKLMMEAKARGEGYKIDKLRRNIEMDEYDFLHWRRSLEEREALLRDISSRQALGLPLEEPGRYKPGSFFGKDQYDPTSALYQYDYWGEPKNSEISKQERMKDAHNKSIVGKGNVWYDMSYDDAIKQTIEKRKEGSTLASQEEETESEEEEEDDDDFDDFDYSILSDESSIGYSEQQPLVNGTQVLTD	no binding
PAP6/FLN1 (protein, UniProt Q9M394 1-471) MASLLIFPHLHHFDSSLDRREVLVVRHSQASRRFLTPKASINGSGITNGAAAETTSKPSRKGRKKKQTSTVIEKDNTETDPELNPELADYDDGIEFPYDDPPLVCCFGAVQKEFVPVVRVHDNPMHPDMYSQWKMLQWDPPEFGRAPGGPPSNVAISHVRLGGRAAFMGKVGEDDFGDELVLMMNQERVQTRAVKFDENSKTACTRVKIKFKDGKMMAETVKEPPEDSLFASELNLAVLKEARIFHFNSEVLTSPTMQSTLFTAIQWSKKFGGLIFFDLNLPLPLWRSRNETRKLIKKAWNEANIIEVSQQELEFLLDEDYYERRRNYTPQYFAEDFDQTKNRRDYYHYTPEEIKSLWHDKLKLLVVTDGTLRLHYYTPTFDGVVIGTEDVLITPFTCDRTGSGDAVVAGIMRKLTTCPEMFEDQDVMERQLRFAVAAGIIAQWTIGAVRGFPTESATQNLKEQVYVPSMW	no binding
rpoC2 (protein, UniProt P56764 1-1376) MAERANLVFHNKVIDGTAIKRLISRLIDHFGMAYTSHILDQVKTLGFQQATATSISLGIDDLLTIPSKGWLVQDAEQQSWILEKHHHYGNVHAVEKLRQSIEIWYATSEYLRQEMNPNFRMTDPFNPVHMMSFSGARGNASQVHQLVGMRGLMSDPQGQMIDLPIQSNLREGLSLTEYIISCYGARKGVVDTAVRTSDAGYLTRRLVEVVQHIVVRRTDCGTIRGISVSPRNKNRMMSERIFIQTLIGRVLADDIYIGSRCVAFRNQDLGIGLVNRLITFGTQSISIRTPFTCRSTSWICRLCYGRSPTHGDLVELGEAVGIIAGQSIGEPGTQLTLRTFHTGGVFTGGTAEHVRAPYNGKIKFNEDLVHPTRTRHGHPAFLCYIDLSVIIESEDIIHSVTIPPKSFLLVQNDQYVESEQVIAEIREGTYTFHFKERVRKYIYSDSEGEMHWSTDVSHAPEFTYSNVHLLPKTSHLWILSGGSCGSSLIRFSIHKDQDQMNIPFLSAERKSISSLSVNNDQVSQKFFSSDFADPKKLGIYDYSELNGNLGTSHYNLIYSAIFHENSDLLAKRRRNRFLIPFQSIQEQEKEFIPQSGISVEIPINGIFRRNSIFAFFDDPRYRRKSSGILKYGTLKADSIIQKEDMIEYRGVQKIKTKYEMKVDRFFFIPEEVHILPESSAIMVQNYSIIGVDTRLTLNIRSQVGGLIRVEKKKKRIELKIFSGDIHFPDKTDKISRHSGILIPPGRGKKNSKESKKFKNWIYVQRITPTKKKFFVLVRPVATYEIADSINLATLFPQDLFREKDNIQLRVFNYILYGNGKPTRGISDTSIQLVRTCLVLNWDKNSSLEEVRAFFVEVSTKGLIQDFIRIGLVKSHISYIRKRNNSPDSGLISADHMNPFYSISPKSGILQQSLRQNHGTIRMFLNRNKESQSLLILSSSNCFRMGPFNHVKHHNVINQSIKKNTLITIKNSSGPLGTATPISNFYSFLPLLTYNQISLIKYFQLDNLKYIFQKINSYLIDENGIILNLDPYSNVVLNPFKLNWYFLHQNYHHNYCEETSTIISLGQFFCENVCIAKKEPHLKSGQVLIVQRDSAVIRSAKPYLATPGAKVHGHYSEILYEGDTLVTFIYEKSRSGDITQGLPKVEQVLEVRSIDSISLNLEKRIKGWNKCITRILGIPWGFLIGAELTIVQSRISLVNKIQKVYRSQGVQIHNRHIEIIVRQITSKVLVSEEGMSNVFLPGELIGLLRAERTGRALEEAICYRAVLLGITRASLNTQSFISEASFQETARVLAKAALRGRIDWLKGLKENVVLGGVIPAGTGFNKGLVHCSRQHTNIILEKKTKNLALFEGDMRDILFYHREFCDSSISKSDFSRI	no binding
rpoC1 (protein, UniProt P56763 1-680) MIDRYKHQQLRIGLVSPQQISAWATKIIPNGEIVGEVTKPYTFHYKTNKPEKDGLFCERIFGPIKSGICACGNYRVIGDEKEDPKFCEQCGVEFVDSRIRRYQMGYIKLTCPVTHVWYLKRLPSYIANLLDKPLKELEGLVYCDFSFARPITKKPTFLRLRGSFEYEIQSWKYSIPLFFTTQGFDIFRNREISTGAGAIREQLADLDLRIIIENSLVEWKQLGEEGPTGNEWEDRKIVRRKDFLVRRMELAKHFIRTNIEPEWMVLCLLPVLPPELRPIIQIEGGKLMSSDINELYRRVIYRNNTLTDLLTTSRSTPGELVMCQEKLVQEAVDTLLDNGIRGQPMRDGHNKVYKSFSDVIEGKEGRFRETLLGKRVDYSGRSVIVVGPSLSLHRCGLPREIAIELFQTFVIRGLIRQHLASNIGVAKSQIREKKPIVWEILQEVMQGHPVLLNRAPTLHRLGIQSFQPILVEGRTICLHPLVCKGFNADFDGDQMAVHVPLSLEAQAEARLLMFSHMNLLSPAIGDPISVPTQDMLIGLYVLTSGTRRGICANRYNPCNRKNYQNERIYETNYKYTKEPFFCNSYDAIGAYRQKKINLDSPLWLRWQLDQRVIASREVPIEVHYESFGNYHEIYAHYLIVRSVKKENFCIYIRTTVGHISFYREIEEAIQGFSQACSYDT	no binding
PAP2/PTAC2 (protein, UniProt Q9S7Q2 1-862) MNLAIPNPNSHHLSFLIQNSSFIGNRRFADGNRLRFLSGGNRKPCSFSGKIKAKTKDLVLGNPSVSVEKGKYSYDVESLINKLSSLPPRGSIARCLDIFKNKLSLNDFALVFKEFAGRGDWQRSLRLFKYMQRQIWCKPNEHIYTIMISLLGREGLLDKCLEVFDEMPSQGVSRSVFSYTALINAYGRNGRYETSLELLDRMKNEKISPSILTYNTVINACARGGLDWEGLLGLFAEMRHEGIQPDIVTYNTLLSACAIRGLGDEAEMVFRTMNDGGIVPDLTTYSHLVETFGKLRRLEKVCDLLGEMASGGSLPDITSYNVLLEAYAKSGSIKEAMGVFHQMQAAGCTPNANTYSVLLNLFGQSGRYDDVRQLFLEMKSSNTDPDAATYNILIEVFGEGGYFKEVVTLFHDMVEENIEPDMETYEGIIFACGKGGLHEDARKILQYMTANDIVPSSKAYTGVIEAFGQAALYEEALVAFNTMHEVGSNPSIETFHSLLYSFARGGLVKESEAILSRLVDSGIPRNRDTFNAQIEAYKQGGKFEEAVKTYVDMEKSRCDPDERTLEAVLSVYSFARLVDECREQFEEMKASDILPSIMCYCMMLAVYGKTERWDDVNELLEEMLSNRVSNIHQVIGQMIKGDYDDDSNWQIVEYVLDKLNSEGCGLGIRFYNALLDALWWLGQKERAARVLNEATKRGLFPELFRKNKLVWSVDVHRMSEGGMYTALSVWLNDINDMLLKGDLPQLAVVVSVRGQLEKSSAARESPIAKAAFSFLQDHVSSSFSFTGWNGGRIMCQRSQLKQLLSTKEPTSEESENKNLVALANSPIFAAGTRASTSSDTNHSGNPTQRRTRTKKELAGSTA	no binding
